These are yes or no findings as the source states them, for the method shown. In cells and extracts the contact can be indirect. Some binding calls cover weakened binding; strength is not graded here. Where a sequence is shown, tags or fusion partners need not be part of it.
Legend:
Assay in all cases: split reporter; yeast enhanced monomeric Venus (yEmVenus) protein-fragment complementation assay (PCA); VF[1] and VF[2] fusions co-expressed from p413ADHcen and p415ADHcen in wild-type MatA (BY4741) yeast; fluorescence microscopy of living cells at room temperature with image analysis (threshold 225 against autofluorescence of mock cells); the three Cdc28 PCAs with Swi4, Swi6 and Mbp1 were also read in 30 deletion strains and in elm1T551A
[1] = molecular target: T1, Elm1 yEmVenus PCA fusion protein (S. cerevisiae) (UniProt P32801)
T1 sequence: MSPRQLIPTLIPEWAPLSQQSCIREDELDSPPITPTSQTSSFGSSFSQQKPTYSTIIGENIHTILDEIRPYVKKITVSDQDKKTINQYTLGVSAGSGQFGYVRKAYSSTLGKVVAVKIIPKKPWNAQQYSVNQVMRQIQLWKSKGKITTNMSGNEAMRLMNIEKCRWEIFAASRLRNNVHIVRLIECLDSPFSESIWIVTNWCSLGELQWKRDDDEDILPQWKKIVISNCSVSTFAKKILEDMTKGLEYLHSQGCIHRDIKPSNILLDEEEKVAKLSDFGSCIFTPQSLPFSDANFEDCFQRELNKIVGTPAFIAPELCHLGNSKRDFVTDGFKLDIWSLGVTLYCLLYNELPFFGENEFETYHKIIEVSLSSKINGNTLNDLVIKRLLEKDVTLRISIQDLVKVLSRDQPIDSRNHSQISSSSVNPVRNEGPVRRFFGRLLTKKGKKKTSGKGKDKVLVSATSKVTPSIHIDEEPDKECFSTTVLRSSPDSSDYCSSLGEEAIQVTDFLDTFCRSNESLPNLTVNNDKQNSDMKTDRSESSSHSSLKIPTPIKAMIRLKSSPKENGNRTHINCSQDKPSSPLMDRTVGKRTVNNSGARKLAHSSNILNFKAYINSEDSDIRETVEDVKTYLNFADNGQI

Protein sequences, listed by entry. Tags and fused reporters are not part of them.
UniProt P00546: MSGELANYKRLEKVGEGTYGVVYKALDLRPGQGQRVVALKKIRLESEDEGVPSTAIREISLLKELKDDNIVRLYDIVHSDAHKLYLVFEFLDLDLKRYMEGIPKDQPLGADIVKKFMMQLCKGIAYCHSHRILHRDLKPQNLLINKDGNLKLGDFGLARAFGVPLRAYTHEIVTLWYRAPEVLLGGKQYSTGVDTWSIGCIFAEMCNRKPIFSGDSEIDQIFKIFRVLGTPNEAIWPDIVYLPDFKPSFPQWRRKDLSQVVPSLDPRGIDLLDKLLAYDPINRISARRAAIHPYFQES

[2] = molecular target: T2, Swi4-VF[2] fusion protein (S. cerevisiae) (UniProt P25302)
T2 sequence: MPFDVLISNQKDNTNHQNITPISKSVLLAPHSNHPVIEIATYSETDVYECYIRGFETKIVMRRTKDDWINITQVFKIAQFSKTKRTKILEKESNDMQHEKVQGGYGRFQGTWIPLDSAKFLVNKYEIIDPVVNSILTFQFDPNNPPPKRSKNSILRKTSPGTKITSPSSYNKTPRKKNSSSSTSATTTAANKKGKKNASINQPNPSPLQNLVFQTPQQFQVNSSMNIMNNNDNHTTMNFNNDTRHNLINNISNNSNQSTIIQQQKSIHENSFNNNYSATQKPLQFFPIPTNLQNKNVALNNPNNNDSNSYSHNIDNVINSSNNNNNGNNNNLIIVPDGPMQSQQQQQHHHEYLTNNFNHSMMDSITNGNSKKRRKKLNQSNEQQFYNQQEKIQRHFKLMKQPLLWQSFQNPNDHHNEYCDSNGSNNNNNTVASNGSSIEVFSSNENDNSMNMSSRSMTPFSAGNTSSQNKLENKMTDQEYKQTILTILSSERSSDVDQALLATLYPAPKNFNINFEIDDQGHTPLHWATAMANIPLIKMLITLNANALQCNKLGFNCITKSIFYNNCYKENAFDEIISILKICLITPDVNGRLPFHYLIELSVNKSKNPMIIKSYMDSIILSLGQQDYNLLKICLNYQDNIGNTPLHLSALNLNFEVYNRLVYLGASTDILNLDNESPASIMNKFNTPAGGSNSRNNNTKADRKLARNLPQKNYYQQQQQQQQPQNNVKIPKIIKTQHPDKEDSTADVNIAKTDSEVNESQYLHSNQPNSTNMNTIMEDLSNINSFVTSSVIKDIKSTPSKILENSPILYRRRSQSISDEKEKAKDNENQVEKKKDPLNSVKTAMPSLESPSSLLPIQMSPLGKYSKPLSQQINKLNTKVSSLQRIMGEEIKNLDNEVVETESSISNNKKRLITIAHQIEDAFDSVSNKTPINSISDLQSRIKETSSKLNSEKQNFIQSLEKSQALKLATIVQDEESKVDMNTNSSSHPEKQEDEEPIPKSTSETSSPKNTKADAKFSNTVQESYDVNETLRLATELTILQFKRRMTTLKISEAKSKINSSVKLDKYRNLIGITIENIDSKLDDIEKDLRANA

[3] = molecular target: T3, Swi6 yEmVenus PCA fusion protein (S. cerevisiae) (UniProt P09959)
T3 sequence: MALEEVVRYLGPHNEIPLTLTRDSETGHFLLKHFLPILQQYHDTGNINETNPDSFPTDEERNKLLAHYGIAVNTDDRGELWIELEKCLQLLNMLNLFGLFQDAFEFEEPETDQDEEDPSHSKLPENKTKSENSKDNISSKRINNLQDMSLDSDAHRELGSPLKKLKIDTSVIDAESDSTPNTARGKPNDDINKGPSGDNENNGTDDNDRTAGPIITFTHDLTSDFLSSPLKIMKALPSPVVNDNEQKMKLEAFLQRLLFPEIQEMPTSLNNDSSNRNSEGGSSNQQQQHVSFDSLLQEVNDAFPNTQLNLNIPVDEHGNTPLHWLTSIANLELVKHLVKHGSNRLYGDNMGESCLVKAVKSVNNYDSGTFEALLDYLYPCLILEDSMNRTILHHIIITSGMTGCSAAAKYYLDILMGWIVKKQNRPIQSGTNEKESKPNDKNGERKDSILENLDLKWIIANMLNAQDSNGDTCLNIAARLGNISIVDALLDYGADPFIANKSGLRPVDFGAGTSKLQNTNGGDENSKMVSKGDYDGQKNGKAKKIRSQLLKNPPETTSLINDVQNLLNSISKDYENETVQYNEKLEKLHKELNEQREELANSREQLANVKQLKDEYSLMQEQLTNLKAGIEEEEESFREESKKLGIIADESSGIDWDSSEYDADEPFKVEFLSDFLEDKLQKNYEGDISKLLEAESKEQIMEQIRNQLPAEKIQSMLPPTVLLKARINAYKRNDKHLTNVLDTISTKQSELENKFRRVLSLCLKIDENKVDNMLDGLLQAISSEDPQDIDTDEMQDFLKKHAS

Measured: binding

Cdc28-VF[1] fusion protein (from UniProt P00546 1-298) (enzyme)
binds: all assays above

From publication PMC2198942
